Results reported in patent US20040043420A1, “Method of identifying conformation-sensitive binding peptides and uses thereof” (priority 2003, published 2004).
No constants are given. Whether binding was seen depends on the method and setting. Some entries that bind do so weakly or less than the wild type.

By UniProt entry, the sequences of proteins in these tests, tags left out.
UniProt Q92731: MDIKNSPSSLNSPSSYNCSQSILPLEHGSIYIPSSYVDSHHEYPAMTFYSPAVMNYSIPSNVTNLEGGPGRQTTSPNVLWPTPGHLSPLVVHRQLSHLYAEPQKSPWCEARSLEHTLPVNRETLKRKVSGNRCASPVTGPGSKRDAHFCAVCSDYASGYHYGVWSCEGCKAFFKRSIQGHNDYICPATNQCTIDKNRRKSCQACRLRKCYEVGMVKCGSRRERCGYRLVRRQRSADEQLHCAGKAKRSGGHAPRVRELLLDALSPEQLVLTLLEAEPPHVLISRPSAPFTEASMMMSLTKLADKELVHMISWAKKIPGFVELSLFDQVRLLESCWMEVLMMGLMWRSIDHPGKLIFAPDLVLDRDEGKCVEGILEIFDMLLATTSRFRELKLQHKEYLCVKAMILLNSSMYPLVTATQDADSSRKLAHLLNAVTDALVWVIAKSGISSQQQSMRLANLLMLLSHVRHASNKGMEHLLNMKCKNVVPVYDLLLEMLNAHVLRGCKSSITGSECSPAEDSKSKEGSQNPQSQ

What follows are binders tested against T1, ER β (UniProt Q92731 1-530, limits assumed) (assay: phage isolated on ERβ-ERE; Buffer).
T1 construct: In vitro; also called estrogen receptor β; ERβ-ERE

Binder	binding
SRLHCLLDSSYCSSR [1B-β]	binds
SSWPNPTFWERQLSR [3B-β]	binds
SRGGGECLGPWCLSR [9B-β]	binds
SSQVWPGPWRLVESR [14B-β]	binds
SSGPWLMHYLGGGSR [7B-β]	binds
SYSKEWFEERLNSR [4B-β]	binds
SSTSWLHHYLMGTSR [8B-β]	binds
SSSMMREFFERELSR [5B-β]	binds
SSSLGPWRLSELESR [16B-β]	binds
SSGLPPNFERMLKSR [6B-β]	binds

Other lines, results leading:

binding	Binder
binds	HSTDMGWLRPWRLLGG [25B-β]
binds	SRECVGGWCLAELSR [18B-β]
binds	SSWPGAEWFKEQLSR [20B-β]
binds	SSIPPRSWWLSQLSR [19B-β]
binds	SSSGPWRWGLSIESR [17B-β]
binds	HSYSSHPLLLSYLWGG [23B-β]
binds	HSWLGPWRLSSIDLGG [24B-β]

Each binder was assayed against T1, ER β (assay: phage isolated on ERβ-ERE; Tamoxifen).

Binder	binding
SSVFTIMDGKVALSR [1T-β]	binds
SSARPWWLQFEGSSR [7T-β]	binds
SSGPFYVGGMLWPADCLSR [10T-β]	binds
SSTTMFDFFYERLSR [6T-β]	binds
SSQEEWLLPWRLASR [8T-β]	binds
SRPYCLGDVWCLDSR [2T-β]	binds
SRNECIGPWCLTISR [13T-β]	binds
SSWNSREFFLSQLSR [5T-β]	binds
SREGWMGPWRLADSR [12T-β]	binds
SSVASREWWVRELSR [15T-β]	binds

Second part, the binder after the results:

binding	Binder
binds	SSDLYSQMREFFQINLSR [23T-β]
binds	SRLNGVFCHDSSDLWVCSR [18T-β]
binds	SSDLHRDCLGVWCLSR [17T-β]
binds	SRPGCLRGVWCLADTPPSR [20T-β]
binds	SSRLVPHSFWLDGLMHGSR [21T-β]
binds	SRMFQVCGDEVCLRSR [16T-β]
binds	SSISTYHMGEWFYAMLSSR [22T-β]

These binders were tested against T1, ER β (assay: phage isolated on ERβ-ERE; Estradiol).

Binder	binding
SRLEELLRVGVLTSR [6E-β]	binds
SRLHDLLLRDESPSR [3E-β]	binds
SSHCHTRLCSLLTSR [15E-β]	binds
SSILERLLGGGSAETV [9E-β]	binds
SRSPILWHLLQDGSR [10E-β]	binds
SSRGLLWDLLTKDSR [1E-β]	binds
SSPTGHRLLESLLLNSNSR [8E-β]	binds
SSIKDFPNLISLLSR [12E-β]	binds
SSGSSAGRLMMLLQDGVSR [13E-β]	binds
SRDWRSGFLYELLSR [4E-β]	binds
SSRTPILFSLLETSR [11E-β]	binds
SRHGILWDLLQGDSR [2E-β]	binds
SREGLLMRLLIGDSR [14E-β]	binds
SSDTRSRLYELLSSSYTSR [5E-β]	binds
SRLEDLLRGDSKPQSR [7E-β]	binds

More lines, now with the values ahead:

binding	Binder
binds	SSRLLCLLDAGQCSR [16E-β]
binds	SRNLLCLLDQEACSR [17E-β]
binds	SSYEIPKWALQWLSR [34E-β]
binds	SRWWLDDHELLLYSSR [26E-β]
binds	SSLKCLLQSSPQKQPFCSR [19E-β]
binds	SSAGLLEDMLRSRSR [21E-β]
binds	SSRTLLEHYLLGGSR [20E-β]
binds	SSLKCLLNSNFCSR [18E-β]
binds	SSRPSFTIPWWFDDPSRSR [33E-β]
binds	SSYDWQCPSWYCPAPPSSR [29E-β]
binds	SSTTWRCPEWYCGSR [30E-β]
binds	SSTRLMCWLGSADTSHCSR [28E-β]
binds	SSLQAGSWLMHYLRGGDSR [23E-β]
binds	SSWDFRVPWWYNNSR [31E-β]
binds	SSQWQAPWWYIDASR [32E-β]
binds	SSRCSSLLCEMLIQTKESR [22E-β]
binds	SRPEGSSWLLHYLSR [24E-β]
binds	SSRTLYCHLTSSNPEWCSR [27E-β]
